In the supplement of paper PMC12823440, “Inhibitors supercharge kinase turnover through native proteolytic circuits” (Nature, 2025):
Some of the results follow. Hit calls seldom repeat between salt and free forms of one compound.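 Kinases were expressed as nanoluciferase fusions in K562 cells and luminescence was read every 4 h between 2 and 18 h as percent of control, DMSO set to 100% and a positive control to 0%. A time point counts as decreased when the signal drops significantly (2 sigma). The hit call is the authors' own, does not follow from the count of time points alone, and its rule is not shown.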

The chains behind the UniProt entries cited, without tags or fusion partners. Where a name states a change or a piece, a line headed by the entry shows the natural chain unless it says otherwise.
UniProt Q9UQM7, whole entry: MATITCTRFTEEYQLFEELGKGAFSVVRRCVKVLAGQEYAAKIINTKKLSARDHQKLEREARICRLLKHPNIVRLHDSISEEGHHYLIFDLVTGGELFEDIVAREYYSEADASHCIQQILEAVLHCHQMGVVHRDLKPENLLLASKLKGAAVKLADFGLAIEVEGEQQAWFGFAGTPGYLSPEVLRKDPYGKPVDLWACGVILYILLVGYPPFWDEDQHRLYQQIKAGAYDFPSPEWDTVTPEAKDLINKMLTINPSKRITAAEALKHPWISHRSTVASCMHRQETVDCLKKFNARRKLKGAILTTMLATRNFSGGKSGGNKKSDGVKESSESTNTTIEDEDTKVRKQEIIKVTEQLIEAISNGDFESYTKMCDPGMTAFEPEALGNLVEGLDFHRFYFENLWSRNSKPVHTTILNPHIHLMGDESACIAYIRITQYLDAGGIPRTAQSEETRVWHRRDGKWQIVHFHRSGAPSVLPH
UniProt Q13555: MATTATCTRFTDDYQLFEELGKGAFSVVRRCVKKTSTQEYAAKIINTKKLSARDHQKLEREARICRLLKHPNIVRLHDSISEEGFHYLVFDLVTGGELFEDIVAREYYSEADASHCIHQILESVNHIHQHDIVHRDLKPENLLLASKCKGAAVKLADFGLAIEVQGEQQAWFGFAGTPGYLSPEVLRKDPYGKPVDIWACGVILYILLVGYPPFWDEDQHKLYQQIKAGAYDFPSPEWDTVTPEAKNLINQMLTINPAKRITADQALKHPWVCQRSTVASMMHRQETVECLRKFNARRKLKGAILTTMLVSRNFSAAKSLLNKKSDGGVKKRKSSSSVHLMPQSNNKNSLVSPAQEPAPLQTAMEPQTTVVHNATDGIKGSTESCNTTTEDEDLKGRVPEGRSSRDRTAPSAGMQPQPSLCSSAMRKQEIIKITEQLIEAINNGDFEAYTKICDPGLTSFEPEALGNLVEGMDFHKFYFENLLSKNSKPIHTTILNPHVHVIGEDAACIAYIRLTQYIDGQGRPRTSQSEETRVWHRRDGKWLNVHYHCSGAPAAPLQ
UniProt Q15131: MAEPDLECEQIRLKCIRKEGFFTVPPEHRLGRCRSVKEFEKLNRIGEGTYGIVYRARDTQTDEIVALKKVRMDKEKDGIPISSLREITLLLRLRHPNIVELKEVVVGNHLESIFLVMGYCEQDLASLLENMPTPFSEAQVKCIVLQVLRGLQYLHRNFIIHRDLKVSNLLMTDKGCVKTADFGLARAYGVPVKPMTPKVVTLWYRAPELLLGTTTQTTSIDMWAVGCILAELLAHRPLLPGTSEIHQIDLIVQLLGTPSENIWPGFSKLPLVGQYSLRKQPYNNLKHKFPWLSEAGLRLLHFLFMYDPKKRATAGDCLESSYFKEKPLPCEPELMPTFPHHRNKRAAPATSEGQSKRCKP
UniProt Q00526: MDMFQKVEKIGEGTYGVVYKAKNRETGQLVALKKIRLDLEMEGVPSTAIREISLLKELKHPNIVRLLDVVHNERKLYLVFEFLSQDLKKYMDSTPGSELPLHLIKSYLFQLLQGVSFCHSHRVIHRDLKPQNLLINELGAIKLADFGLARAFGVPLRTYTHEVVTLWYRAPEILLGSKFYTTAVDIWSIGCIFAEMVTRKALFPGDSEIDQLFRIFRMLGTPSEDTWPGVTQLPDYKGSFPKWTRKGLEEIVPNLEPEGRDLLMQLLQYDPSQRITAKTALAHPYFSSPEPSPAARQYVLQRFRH
UniProt Q00535, whole entry, looked up: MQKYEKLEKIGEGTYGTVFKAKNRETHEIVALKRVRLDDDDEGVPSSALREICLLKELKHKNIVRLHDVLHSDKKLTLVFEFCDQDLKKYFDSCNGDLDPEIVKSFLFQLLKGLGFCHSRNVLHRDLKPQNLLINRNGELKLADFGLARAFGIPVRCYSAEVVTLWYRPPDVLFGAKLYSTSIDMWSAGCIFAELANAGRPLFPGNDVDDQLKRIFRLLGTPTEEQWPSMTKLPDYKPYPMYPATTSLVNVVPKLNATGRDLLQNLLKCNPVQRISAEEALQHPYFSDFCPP
UniProt Q00534, whole entry: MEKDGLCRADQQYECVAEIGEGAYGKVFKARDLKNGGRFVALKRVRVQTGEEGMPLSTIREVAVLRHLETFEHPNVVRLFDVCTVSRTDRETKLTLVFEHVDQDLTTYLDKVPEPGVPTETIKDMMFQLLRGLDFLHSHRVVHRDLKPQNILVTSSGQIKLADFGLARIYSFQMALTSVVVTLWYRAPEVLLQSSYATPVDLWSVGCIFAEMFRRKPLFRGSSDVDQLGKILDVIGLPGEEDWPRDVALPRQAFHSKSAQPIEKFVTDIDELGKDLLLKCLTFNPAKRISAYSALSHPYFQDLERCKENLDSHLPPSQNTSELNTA
UniProt O96017, whole entry: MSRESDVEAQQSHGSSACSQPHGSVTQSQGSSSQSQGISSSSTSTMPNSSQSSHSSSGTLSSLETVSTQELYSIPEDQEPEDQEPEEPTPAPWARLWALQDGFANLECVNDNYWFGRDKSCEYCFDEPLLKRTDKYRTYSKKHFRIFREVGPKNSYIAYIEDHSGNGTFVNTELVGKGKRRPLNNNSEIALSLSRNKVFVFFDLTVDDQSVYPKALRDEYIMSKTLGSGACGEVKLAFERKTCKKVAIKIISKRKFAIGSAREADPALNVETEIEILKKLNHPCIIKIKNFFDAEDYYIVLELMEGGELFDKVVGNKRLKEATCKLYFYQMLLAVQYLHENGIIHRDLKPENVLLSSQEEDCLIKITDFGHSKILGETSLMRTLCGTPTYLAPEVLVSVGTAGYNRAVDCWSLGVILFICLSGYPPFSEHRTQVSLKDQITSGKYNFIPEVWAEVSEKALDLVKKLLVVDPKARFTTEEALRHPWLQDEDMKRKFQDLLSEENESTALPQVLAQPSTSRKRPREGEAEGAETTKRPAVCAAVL
UniProt P07333, whole entry: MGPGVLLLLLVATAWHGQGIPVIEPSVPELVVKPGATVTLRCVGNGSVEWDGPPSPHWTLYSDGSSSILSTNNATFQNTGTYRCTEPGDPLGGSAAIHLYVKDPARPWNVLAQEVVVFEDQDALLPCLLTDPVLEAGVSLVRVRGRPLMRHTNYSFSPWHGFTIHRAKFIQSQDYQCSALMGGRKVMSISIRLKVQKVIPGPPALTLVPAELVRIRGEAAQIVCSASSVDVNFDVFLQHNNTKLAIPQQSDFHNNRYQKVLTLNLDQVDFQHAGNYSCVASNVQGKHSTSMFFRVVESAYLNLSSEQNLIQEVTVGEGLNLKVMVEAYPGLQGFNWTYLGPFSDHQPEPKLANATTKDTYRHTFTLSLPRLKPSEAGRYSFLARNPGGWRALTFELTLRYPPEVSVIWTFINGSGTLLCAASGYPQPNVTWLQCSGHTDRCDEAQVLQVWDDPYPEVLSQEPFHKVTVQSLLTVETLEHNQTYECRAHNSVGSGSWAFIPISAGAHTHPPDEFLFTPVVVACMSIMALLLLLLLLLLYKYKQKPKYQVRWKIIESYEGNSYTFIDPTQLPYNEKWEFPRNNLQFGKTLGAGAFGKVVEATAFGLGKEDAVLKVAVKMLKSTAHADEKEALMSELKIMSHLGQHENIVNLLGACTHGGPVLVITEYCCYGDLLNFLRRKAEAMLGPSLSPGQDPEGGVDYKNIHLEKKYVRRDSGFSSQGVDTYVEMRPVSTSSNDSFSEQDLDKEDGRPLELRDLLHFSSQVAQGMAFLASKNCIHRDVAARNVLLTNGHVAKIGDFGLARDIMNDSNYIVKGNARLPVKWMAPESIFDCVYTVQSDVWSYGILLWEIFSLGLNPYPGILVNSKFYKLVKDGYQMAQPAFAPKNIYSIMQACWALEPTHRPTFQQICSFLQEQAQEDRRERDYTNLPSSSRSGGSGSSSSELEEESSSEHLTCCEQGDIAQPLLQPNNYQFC
UniProt P41240: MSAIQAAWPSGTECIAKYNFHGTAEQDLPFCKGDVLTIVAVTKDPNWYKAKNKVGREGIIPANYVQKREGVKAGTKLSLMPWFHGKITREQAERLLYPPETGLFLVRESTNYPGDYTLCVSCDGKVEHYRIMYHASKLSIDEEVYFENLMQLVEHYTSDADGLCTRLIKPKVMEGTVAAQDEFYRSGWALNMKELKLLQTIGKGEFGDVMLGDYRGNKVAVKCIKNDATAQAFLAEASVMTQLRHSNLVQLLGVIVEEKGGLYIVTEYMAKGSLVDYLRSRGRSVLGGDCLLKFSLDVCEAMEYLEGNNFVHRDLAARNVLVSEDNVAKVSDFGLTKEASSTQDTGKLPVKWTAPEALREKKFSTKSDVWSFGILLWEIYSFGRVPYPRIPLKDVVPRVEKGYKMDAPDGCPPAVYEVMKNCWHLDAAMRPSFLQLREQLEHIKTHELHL
UniProt P48729: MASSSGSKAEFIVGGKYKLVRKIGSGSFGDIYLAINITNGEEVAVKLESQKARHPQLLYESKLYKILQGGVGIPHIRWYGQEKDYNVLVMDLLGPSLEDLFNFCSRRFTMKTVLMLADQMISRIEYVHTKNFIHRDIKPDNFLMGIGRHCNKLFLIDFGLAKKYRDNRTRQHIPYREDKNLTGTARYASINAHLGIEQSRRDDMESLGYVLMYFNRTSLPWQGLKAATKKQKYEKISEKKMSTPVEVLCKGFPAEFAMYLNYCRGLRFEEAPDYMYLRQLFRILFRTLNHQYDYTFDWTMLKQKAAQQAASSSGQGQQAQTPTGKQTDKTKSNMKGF
UniProt P48730: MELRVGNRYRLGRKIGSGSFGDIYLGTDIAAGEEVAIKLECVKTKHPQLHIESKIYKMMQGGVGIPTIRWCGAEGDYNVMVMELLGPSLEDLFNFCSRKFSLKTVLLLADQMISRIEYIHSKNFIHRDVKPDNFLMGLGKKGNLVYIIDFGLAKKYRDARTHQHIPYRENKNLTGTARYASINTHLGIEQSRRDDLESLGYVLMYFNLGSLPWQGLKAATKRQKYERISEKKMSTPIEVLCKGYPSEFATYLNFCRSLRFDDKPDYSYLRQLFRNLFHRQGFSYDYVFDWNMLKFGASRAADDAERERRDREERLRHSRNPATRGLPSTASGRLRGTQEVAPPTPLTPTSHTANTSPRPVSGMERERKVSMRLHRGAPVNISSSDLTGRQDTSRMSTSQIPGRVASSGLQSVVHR
UniProt Q08345: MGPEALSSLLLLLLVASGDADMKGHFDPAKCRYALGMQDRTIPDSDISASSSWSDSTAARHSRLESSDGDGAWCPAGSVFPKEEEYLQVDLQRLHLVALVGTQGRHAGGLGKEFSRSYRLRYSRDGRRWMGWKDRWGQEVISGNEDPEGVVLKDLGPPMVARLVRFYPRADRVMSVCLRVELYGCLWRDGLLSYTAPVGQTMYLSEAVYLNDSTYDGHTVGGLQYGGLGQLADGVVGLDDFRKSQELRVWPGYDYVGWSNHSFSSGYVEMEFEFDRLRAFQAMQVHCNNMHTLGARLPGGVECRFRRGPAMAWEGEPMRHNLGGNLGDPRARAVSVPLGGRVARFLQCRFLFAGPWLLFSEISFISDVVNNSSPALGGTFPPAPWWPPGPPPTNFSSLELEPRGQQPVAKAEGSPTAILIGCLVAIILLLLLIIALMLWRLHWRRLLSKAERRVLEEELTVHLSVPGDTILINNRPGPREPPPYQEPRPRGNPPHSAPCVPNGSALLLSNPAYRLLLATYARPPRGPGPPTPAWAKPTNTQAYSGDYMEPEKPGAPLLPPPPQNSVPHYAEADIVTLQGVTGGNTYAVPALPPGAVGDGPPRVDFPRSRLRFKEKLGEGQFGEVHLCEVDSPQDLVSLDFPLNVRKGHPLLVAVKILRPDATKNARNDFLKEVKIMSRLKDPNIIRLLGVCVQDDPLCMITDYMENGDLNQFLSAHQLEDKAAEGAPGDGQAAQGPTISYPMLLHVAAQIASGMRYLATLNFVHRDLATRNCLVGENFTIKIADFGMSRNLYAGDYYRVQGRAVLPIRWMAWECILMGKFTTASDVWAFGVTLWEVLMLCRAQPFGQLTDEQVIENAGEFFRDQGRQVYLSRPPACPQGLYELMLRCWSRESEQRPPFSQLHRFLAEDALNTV
UniProt Q92630: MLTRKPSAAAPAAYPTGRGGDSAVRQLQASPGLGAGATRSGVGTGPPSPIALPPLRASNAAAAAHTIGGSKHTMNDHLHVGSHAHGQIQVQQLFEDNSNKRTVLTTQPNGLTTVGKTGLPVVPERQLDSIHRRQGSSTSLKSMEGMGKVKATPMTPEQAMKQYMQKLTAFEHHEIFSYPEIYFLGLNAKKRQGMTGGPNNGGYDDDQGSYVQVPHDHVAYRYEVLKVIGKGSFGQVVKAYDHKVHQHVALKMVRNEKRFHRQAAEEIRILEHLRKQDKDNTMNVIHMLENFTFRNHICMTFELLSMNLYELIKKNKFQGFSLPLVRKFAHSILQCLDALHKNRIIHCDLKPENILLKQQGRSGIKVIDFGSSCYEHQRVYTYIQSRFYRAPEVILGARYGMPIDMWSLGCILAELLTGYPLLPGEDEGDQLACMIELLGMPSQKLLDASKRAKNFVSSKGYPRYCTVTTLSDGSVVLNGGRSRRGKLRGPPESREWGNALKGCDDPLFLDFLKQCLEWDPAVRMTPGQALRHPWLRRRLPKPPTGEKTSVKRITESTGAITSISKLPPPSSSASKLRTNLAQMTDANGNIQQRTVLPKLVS

Experiments:
Test in all cases: number of time points (of 5) at which kinase-Nluc abundance scored as decreased, DMSO-normalised (count); higher = more persistent destabilization
Settings in all cases: K562; 2-18 h
[1] = target: CAMK2A (UniProt Q9UQM7)
[2] = target: CAMK2G (UniProt Q13555)
[3] = target: CDK10 (UniProt Q15131)
[4] = target: CDK2 (UniProt P24941)
[5] = target: CDK3 (UniProt Q00526)
[6] = target: CDK5 (UniProt Q00535)
[7] = target: CDK6 (UniProt Q00534)
[8] = target: CHEK2 (UniProt O96017)
[9] = target: CSF1R (UniProt P07333)
[10] = target: CSK (UniProt P41240)
[11] = target: CSNK1A1 (UniProt P48729)
[12] = target: CSNK1D (UniProt P48730)
[13] = target: DDR1 (UniProt Q08345)
[14] = target: DYRK1B (UniProt Q9Y463)
[15] = target: DYRK2 (UniProt Q92630)
[16] = target: EGFR (UniProt P00533)
[17] = target: EGFR_G719S (UniProt P00533)
[18] = target: EGFR_G719S_T790M (UniProt P00533)
[19] = target: EGFR_L718V (UniProt P00533)
[20] = target: EGFR_L858R (UniProt P00533)

Compound | number of time points [1] | number of time points [2] | number of time points [3] | number of time points [4] | number of time points [5] | number of time points [6] | number of time points [7] | number of time points [8] | number of time points [9] | number of time points [10] | number of time points [11] | number of time points [12] | number of time points [13] | number of time points [14] | number of time points [15] | number of time points [16] | number of time points [17] | number of time points [18] | number of time points [19] | number of time points [20]
C=C[C@H]1CN2CC[C@]3(C(=O)Nc4ccccc43)[C@@H]2C[C@@H]1/C(=C\OC)C(=O)OC [Corynoxeine] (2 µM) | 0 | 0 | 0 | 0 | 0 | 0 | 0 | 0 | 0 | 0 | 0 | 0 | 0 | 0 | 0 | 0 | 0 | 0 | 0 | 0
CC(=O)Oc1ccc(/C=C/c2cc(OC(C)=O)cc(OC(C)=O)c2)cc1 [Triacetylresveratrol] (10 µM) | 0 | 0 | 0 | 0 | 0 | 0 | 0 | 0 | 0 | 0 | 0 | 0 | 0 | 0 | 0 | 0 | 0 | 0 | 0 | 0
O=C(O)c1sc2cc(Cl)ccc2c1Cl (10 µM) | 0 | 0 | 0 | 0 | 0 | 0 | 3 | 0 | 0 | 0 | 0 | 0 | 0 | 0 | 0 | 0 | 0 | 0 | 0 | 0
O=c1[nH]c2ccccc2n1C1CCN(Cc2ccc(-c3[nH]c4cc5ncnc5cc4nc3-c3ccccc3)cc2)CC1 [AKT inhibitor VIII] (2.5 µM) | 0 | 0 | 0 | 0 | 0 | 0 | 0 | 0 | 0 | 0 | 0 | 0 | 0 | 0 | 0 | 0 | 0 | 0 | 0 | 0
O=C(N[C@@H](COc1ccc2[nH]c(=O)[nH]c2c1)c1ccccc1)c1cccn(Cc2ccc(F)c(F)c2)c1=O (2.5 µM) | 0 | 0 | 0 | 0 | 0 | 0 | 0 | 0 | 0 | 0 | 0 | 0 | 0 | 0 | 0 | 0 | 0 | 0 | 0 | 0
O=C(O)c1nn(Cc2ccc(Cl)cc2Cl)c2ccccc12 [Lonidamine] (10 µM) | 0 | 0 | 0 | 0 | 0 | 0 | 0 | 0 | 0 | 0 | 0 | 0 | 0 | 0 | 0 | 0 | 0 | 0 | 0 | 0
Cn1cc(C2=C(c3cn(C4CCN(Cc5ccccn5)CC4)c4ccccc34)C(=O)NC2=O)c2ccccc21 [Enzastaurin] (10 µM) | 0 | 0 | 0 | 0 | 0 | 0 | 0 | 0 | 0 | 0 | 0 | 0 | 0 | 0 | 0 | 0 | 0 | 0 | 0 | 0
COc1ccc(N(C(=O)Oc2c(C)cccc2C)c2ccnc(Nc3ccc(N4CCN(C)CC4)cc3)n2)c(OC)c1 (2.5 µM) | 0 | 0 | 0 | 0 | 0 | 0 | 0 | 0 | 0 | 0 | 0 | 0 | 0 | 0 | 0 | 0 | 0 | 0 | 0 | 0
Cc1n[nH]cc1-c1cc2nc([C@@H]3CC4CCN3CC4)[nH]c(=O)c2s1 [Simurosertib] (2.5 µM) | 0 | 0 | 0 | 0 | 0 | 0 | 0 | 0 | 0 | 0 | 0 | 0 | 0 | 0 | 0 | 0 | 0 | 0 | 0 | 0
COC[C@H]1OC(=O)c2coc3c2[C@@]1(C)C1=C(C3=O)[C@@H]2CCC(=O)[C@@]2(C)C[C@H]1OC(C)=O [Wortmannin] (2.5 µM) | 0 | 0 | 0 | 0 | 0 | 0 | 0 | 2 | 0 | 0 | 0 | 0 | 4 | 2 | 3 | 0 | 2 | 0 | 0 | 0
